According to patent US10377811B2, “Peptides, combination of peptides as targets and for use in immunotherapy against gallbladder cancer and cholangiocarcinoma and other cancers” (Immatics biotechnologies GmbH, priority 2016, dated 2019):

System: other tumor types
Assay: Presentation or detection of the peptides on other tumor types (LC-MS of HLA ligands)
Parameters: species or system human
Details: for Other relevant organs/diseases: tumor types with over-presentation on more than 5% of samples, or presentation on more than 5% with tumor vs normal ratio larger than 3, Table 4A; for Additional Entities: tumor types with over-presentation on more than 5% of samples, or presentation on more than 5% with tumor vs normal ratio larger than three, Table 4B
Protocol: (§1) Table 4A: Peptides according to the present invention and their specific uses in other proliferative diseases, especially in other cancerous diseases. […] Over-presentation is defined as higher presentation on the tumor sample as compared to the normal sample with highest presentation. Normal tissues against which over-presentation was tested were: adipose tissue, adrenal gland, artery, bone marrow, brain, central nerve, colon, duodenum, esophagus, eye, gallbladder, heart, kidney, liver, lung, lymph node, mononuclear white blood cells, pancreas, parathyroid gland, peripheral nerve, peritoneum, pituitary, pleura, rectum, salivary gland, skeletal muscle, skin, small intestine, spleen, stomach, thyroid gland, trachea, ureter, urinary bladder, vein.
as §1, with “4B:” for “4A:”, “colon,” for “colon, duodenum,”, “node,” for “node, mononuclear”, “stomach, thymus,” for “stomach,”
FIGS. 1A to 1G show the over-presentation of various peptides in normal tissues (white bars) and gallbladder cancer and cholangiocarcinoma (black bars). FIG. 1A: Gene symbol: MON2, Peptide: AVMTDLPVI, (SEQ ID NO.: 16), Tissues from left to right: 6 adipose tissues, 8 adrenal glands, 24 blood cells, 17 blood vessels, 10 bone marrows, 15 brains, 8 breasts, 4 cartilages, 7 esophagi, 2 eyes, 16 hearts, 19 kidneys, 21 large intestines, 25 livers, 49 lungs, 8 lymph nodes, 13 nerves, 3 ovaries, 11 pancreases, 6 parathyroid glands, 1 peritoneum, 6 pituitary glands, 7 placentas, 1 pleura, 3 prostates, 7 salivary glands, 10 skeletal muscles, 12 skins, 6 small intestines, 12 spleens, 5 stomachs, 7 testes, 2 thymi, 2 thyroid glands, 14 tracheas, 7 ureters, 8 urinary bladders, 6 uteri, 3 gallbladders, 17 gallbladder cancer and cholangiocarcinoma samples. The peptide has additionally been detected on 5/18 acute myeloid leukemias, 7/48 benign prostatic hyperplasias, 8/18 breast cancers, 4/17 chronic lymphocytic leukemias, 1/29 colorectal cancers, 3/34 brain cancers, 4/21 liver cancers, 4/10 head and neck cancers, 4/18 melanomas, 12/20 non-Hodgkin lymphomas, 10/90 non-small cell lung cancers, 6/20 ovarian cancers, 2/18 esophageal cancers, 3/19 pancreatic cancers, 3/23 kidney cancers, 6/17 small cell lung cancers, 3/15 urinary bladder cancers, and 6/16 uterus cancers. FIG. 1B: Gene symbol: CDC25B, Peptide: ISAPLVKTL (SEQ ID NO.: 24), Tissues from left to right: 6 adipose tissues, 8 adrenal glands, 24 blood cells, 17 blood vessels, 10 bone marrows, 15 brains, 8 breasts, 4 cartilages, 7 esophagi, 2 eyes, 16 hearts, 19 kidneys, 21 large intestines, 25 livers, 49 lungs, 8 lymph nodes, 13 nerves, 3 ovaries, 11 pancreases, 6 parathyroid glands, 1 peritoneum, 6 pituitary glands, 7 placentas, 1 pleura, 3 prostates, 7 salivary glands, 10 skeletal muscles, 12 skins, 6 small intestines, 12 spleens, 5 stomachs, 7 testes, 2 thymi, 2 thyroid glands, 14 tracheas, 7 ureters, 8 urinary bladders, 6 uteri, 3 gallbladders, 17 gallbladder cancer and cholangiocarcinoma samples. The peptide has additionally been detected on 1/20 ovarian cancers. […]

28 (YASGSSASL; listed as Homo sapiens) [compound 28]
Other relevant organs/diseases: RCC, AML, Melanoma

18 (SLSPDLSQV; listed as Homo sapiens) [compound 18]
Other relevant organs/diseases: HCC, NHL, AML

25 (NLSETASTMAL; listed as Homo sapiens) [compound 25]
peptide additionally detected on (samples/total) (liver cancers): 1/21
peptide additionally detected on (samples/total) (non-Hodgkin lymphomas): 1/20
peptide additionally detected on (samples/total) (non-small cell lung cancers): 4/90
peptide additionally detected on (samples/total) (ovarian cancers): 1/20
peptide additionally detected on (samples/total) (small cell lung cancers): 1/17
Other relevant organs/diseases: SCLC, NHL, Urinary bladder cancer
peptide additionally detected on (samples/total) (urinary bladder cancers): 1/15

29 (FASEVSNVL; listed as Homo sapiens) [compound 29]
Other relevant organs/diseases: SCLC, RCC, CLL, AML, Melanoma

32 (YVISQVFEI; listed as Homo sapiens) [compound 32]
Other relevant organs/diseases: CLL, Melanoma
Additional Entities: NSCLC

6 (LLLPLLPPLSPS; listed as Homo sapiens) [compound 6]
Other relevant organs/diseases: SCLC, PC
Additional Entities: Brain Cancer

17 (VLYDNTQLQL; listed as Homo sapiens) [compound 17]
Other relevant organs/diseases: NHL, AML
Additional Entities: CLL, OC, Urinary bladder cancer

31 (IAIPFLIKL; listed as Homo sapiens) [compound 31]
Other relevant organs/diseases: SCLC, NHL
Additional Entities: HCC, BRCA

20 (VLQDELPQL; listed as Homo sapiens) [compound 20]
Other relevant organs/diseases: NSCLC, NHL, AML, HNSCC, OC

7 (LLLSDPDKVTI; listed as Homo sapiens) [compound 7]
Other relevant organs/diseases: HCC

30 (FASGLIHRV; listed as Homo sapiens) [compound 30]
Other relevant organs/diseases: CLL, AML

26 (TAQTLVRIL; listed as Homo sapiens) [compound 26]
Other relevant organs/diseases: CLL, BRCA

24 (ISAPLVKTL; listed as Homo sapiens) [compound 24]
peptide additionally detected on (samples/total) (ovarian cancers): 1/20
Additional Entities: CLL

16 (AVMTDLPVI; listed as Homo sapiens) [compound 16]
peptide additionally detected on (samples/total) (acute myeloid leukemias): 5/18
peptide additionally detected on (samples/total) (benign prostatic hyperplasias): 7/48
peptide additionally detected on (samples/total) (brain cancers): 3/34
peptide additionally detected on (samples/total) (breast cancers): 8/18
peptide additionally detected on (samples/total) (chronic lymphocytic leukemias): 4/17
peptide additionally detected on (samples/total) (colorectal cancers): 1/29
peptide additionally detected on (samples/total) (esophageal cancers): 2/18
peptide additionally detected on (samples/total) (head and neck cancers): 4/10
peptide additionally detected on (samples/total) (kidney cancers): 3/23
peptide additionally detected on (samples/total) (liver cancers): 4/21
peptide additionally detected on (samples/total) (melanomas): 4/18
peptide additionally detected on (samples/total) (non-Hodgkin lymphomas): 12/20
peptide additionally detected on (samples/total) (non-small cell lung cancers): 10/90
peptide additionally detected on (samples/total) (ovarian cancers): 6/20
peptide additionally detected on (samples/total) (pancreatic cancers): 3/19
peptide additionally detected on (samples/total) (small cell lung cancers): 6/17
Other relevant organs/diseases: CLL, NHL, AML
peptide additionally detected on (samples/total) (urinary bladder cancers): 3/15
peptide additionally detected on (samples/total) (uterus cancers): 6/16

1 (YAAEIASAL; listed as Homo sapiens) [compound 1]
Other relevant organs/diseases: AML, Melanoma

21 (IAFPTSISV; listed as Homo sapiens) [compound 21]
Other relevant organs/diseases: BRCA
